LdMetRS: 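Primary screen of methionyl-tRNA synthetase; the read-out is not stated. Target: Methionyl-tRNA synthetase (putative), Leishmania donovani (UniProt E9BF75). The test concentration is not given. The values are filed as inhibition. About 68,000 compounds were tested under these conditions; 0.035% (about 24) showed 50% or more at least once.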
Mtb heat-shock: 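Assay on Mycobacterium tuberculosis, filed only as a heat shock assay from Cornell; the read-out is not stated. The concentration is filed as 10 mM, unlikely as a test dose, so the dose is not known. Direction is inferred from retests: higher values go with stronger inhibition. Size under these conditions: about 69,000 compounds, about 930 of them at 50% or above in at least one test.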

Protein sequences, listed by entry. Tags and fused reporters are not part of them.
UniProt E9BF75, entry or part of it: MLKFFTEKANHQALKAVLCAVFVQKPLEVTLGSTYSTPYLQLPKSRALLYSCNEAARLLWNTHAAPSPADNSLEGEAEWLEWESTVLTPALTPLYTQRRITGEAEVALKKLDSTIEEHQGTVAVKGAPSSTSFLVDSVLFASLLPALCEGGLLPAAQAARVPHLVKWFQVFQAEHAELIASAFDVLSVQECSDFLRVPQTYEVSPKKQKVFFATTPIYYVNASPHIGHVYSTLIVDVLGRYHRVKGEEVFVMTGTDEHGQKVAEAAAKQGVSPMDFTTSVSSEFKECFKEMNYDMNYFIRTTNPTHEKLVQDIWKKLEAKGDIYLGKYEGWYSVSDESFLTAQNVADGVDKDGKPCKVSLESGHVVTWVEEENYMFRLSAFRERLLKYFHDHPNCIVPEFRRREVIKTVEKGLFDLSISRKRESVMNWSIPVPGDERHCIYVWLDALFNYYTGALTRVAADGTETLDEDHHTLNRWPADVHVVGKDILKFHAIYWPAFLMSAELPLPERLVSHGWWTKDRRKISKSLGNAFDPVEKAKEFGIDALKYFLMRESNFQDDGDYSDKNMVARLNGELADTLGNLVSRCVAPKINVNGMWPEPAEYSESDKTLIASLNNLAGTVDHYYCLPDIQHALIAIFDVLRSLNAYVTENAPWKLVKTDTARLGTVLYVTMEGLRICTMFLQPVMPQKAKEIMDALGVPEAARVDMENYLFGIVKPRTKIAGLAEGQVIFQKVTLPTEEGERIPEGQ

Results are percentages, as filed. The record does not define 0% and 100%; most values in the screen are far below 50% and negative numbers occur (in some assays of this library far below -100). The compounds are a random part of those screened. A dash means the value is not listed here; it may have been measured.

| # | structure | LdMetRS | Mtb heat-shock |
|---|---|---|---|
| 1 | `O=C(O)C(F)(F)F.c1csc(CN2CCc3onc(Cn4cccc4)c3C2)c1` | - | -44.03% |
| 2 | `O=C1CO[C@H]2CN(S(=O)(=O)c3ccccc3)C[C@H]2N1c1ccccc1` | 12.64% | - |
| 3 | `[H][C@]12CC[C@@]3(N=C(c4ccccc4)NC3=O)[C@@]1([H])CN(Cc1ccco1)C2` | - | -1.199% |
| 4 | `COc1cccc(CN2CCCC3(CCN(C(=O)N4CCCC4)C3)C2)c1.O=C(O)C(F)(F)F` (configuration not stated) | - | 2.073% |
| 5 | `CSC(C)C(=O)NS(=O)(=O)c1ccc(F)c(C(F)(F)F)c1` (configuration not stated) | 9.645% | -16.4% |
| 6 | `O=C(O)C(F)(F)F.O=C(c1cnccn1)N1CCOCC2(CCN(C3CCOCC3)C2)C1` (configuration not stated) | - | -9.003% |
| 7 | `[H][C@@]12OCCN(C(=O)c3cccc(C)n3)[C@@]1([H])CC[C@H]2OCCN(C)C` | - | -28.06% |
| 8 | `N#CCCN(Cc1cccnc1)C(=O)c1cc(Cl)c[nH]1` | 9.025% | 1.177% |
| 9 | `c1cncc(CN2CCC(c3ccc4c(c3)OCO4)CC2)c1` | 3.416% | - |
| 10 | `Cc1nc(C)n(CC(=O)N2CCCC(c3nc(C)n4c(C)csc34)C2)n1` (configuration not stated) | 9.206% | 0.841% |
| 11 | `CCCC(=O)N(CCCN1CCOCC1)c1nc2c(C)c(C)ccc2s1.Cl` | - | 46.86% |
| 12 | `CC(C)c1nn(C)c(Cl)c1CNCC(=O)N1CCN(C)CC1` | 3.81% | - |
| 13 | `CCOc1ncccc1CNc1nnc(C)c(C)c1C#N` | 14.29% | -6.522% |
| 14 | `[H][C@@]12CCN(C(=O)c3ccncn3)C[C@@]1([H])O[C@@H](C)C2` | - | 5.301% |
| 15 | `O=C(c1c[nH]c(=O)c(Cl)c1)N1C[C@@H]2CC[C@H](C1)N(Cc1ccccc1)C2` | 14.5% | - |
| 16 | `Cc1cc2c(=O)n3c(nc2s1)CCN(C(=O)c1ccncc1)CC3` | 11.99% | 12.9% |
| 17 | `O=C(CN1CCOC(Cn2cncn2)C1)NCc1cccs1` (configuration not stated) | -6.032% | 25.23% |
| 18 | `CN1CC2(CCN(Cc3ncc[nH]3)CC2)CC1=O` | 12.32% | 19.15% |
| 19 | `Cl.c1cc(CNc2cnc(C3CCCN3)cn2)ccn1` (configuration not stated) | - | -2.449% |
| 20 | `O=C(O)C(F)(F)F.[H][C@@]12CN(C(=O)c3cccs3)C[C@]1([H])OCCN2CC1CCCO1` (some centres not stated) | - | -25.16% |
| 21 | `CC(NCc1ccc(OCC(N)=O)cc1)c1ccc(Cl)cc1Cl` (configuration not stated) | 9.441% | - |
| 22 | `O=C(Nc1cc(Cl)ccn1)c1nc(N2CCCC2)ncc1Cl` | - | 5.327% |
| 23 | `CNC(=O)N1CCC2(CC1)CN(C)Cc1cc(F)ccc12` | 9.42% | - |
| 24 | `Cc1cccc(CN2CCc3nnc(CN4CCCCC4)n3CC2)n1.O=C(O)C(F)(F)F.O=C(O)C(F)(F)F` | - | -5.727% |
| 25 | `[H][C@@]12CCN(Cc3scnc3C)C[C@]1(c1nnc(C)o1)CCO2` | - | 14.73% |
| 26 | `CC(CCc1ccccc1)NC(=O)CNCCCN(C)C` (configuration not stated) | 8.791% | - |
| 27 | `O=C(NC1CCCC1)c1ccnc(C2CCNCC2)c1` | 22.33% | - |
| 28 | `O=C(NCCc1cnccn1)c1ccc(S(=O)(=O)NC2CCC2)cc1` | 7.256% | -1.689% |
| 29 | `CC(=O)N1CCC(NC(=O)c2ccccc2-n2cnnn2)CC1` | - | 5.307% |
| 30 | `c1ccc(OCc2n[nH]c3c2CN(CC2CC2)C3)nc1` | 10.1% | - |
| 31 | `CN(c1ccc(OCc2cnc(Cl)s2)cc1)S(C)(=O)=O` | 2.506% | -4.433% |
| 32 | `CC(O)CNC(=O)CCc1nc2ncccc2[nH]1` (configuration not stated) | 13.03% | 12.68% |
| 33 | `COCC(=O)N1CCC2(CCC2NC(=O)c2ccn(C)c2)CC1` (configuration not stated) | 11.11% | -4.246% |
| 34 | `Nc1nc2nc(C3CCCN(C(=O)c4cnccn4)C3)ccc2s1` (configuration not stated) | 19.27% | -14.75% |
| 35 | `[H][C@]12CCN(S(C)(=O)=O)[C@@]1([H])CC[C@H](COCC(=O)N1CCCC1)O2` | - | -18.95% |
| 36 | `COCCN1C(=O)[C@H]2CC[C@@H]1CN(S(=O)(=O)c1ccc(OC)cc1)C2` | 5.322% | - |
| 37 | `Cn1c(CN2CCCC(Cn3cc(CCO)nn3)C2)cc2ccccc21` (configuration not stated) | 9.89% | 22.13% |
| 38 | `COc1ccc2cc(C(=O)N3CCCC(n4ccnc4C)C3)[nH]c2c1` (configuration not stated) | 21.13% | -13.41% |
| 39 | `O=C1OCCN1CCOc1nc(-c2ccccc2Cl)no1` | 9.36% | -3.571% |
| 40 | `O=C(N[C@H]1CCCC[C@@H]1O)c1ccc2nc(-c3ccccc3)[nH]c2c1` | 8.611% | 0.8647% |
| 41 | `CN(C)CCOCC1CN(Cc2cccs2)Cc2ccnn2C1.O=C(O)C(F)(F)F.O=C(O)C(F)(F)F.O=C(O)C(F)(F)F` (configuration not stated) | - | -22.31% |
| 42 | `COc1ccc(Cc2ncc3c(n2)CN(C(=O)C(C)(C)C)C3)cc1` | 9.067% | 10.99% |

Source: ChEMBL document CHEMBL3988442, “University of Dundee, Small-Polar-MMV Screening Library” (2021).